# PubChem BioAssay AID540256 (National Center for Advancing Translational Sciences (NCATS), 2011)
# The whole screen tested about 300,000 compounds, of which about 3,700 (1.2%) were called active. The shares of active, inactive and inconclusive entries below differ from those in the screen. The call rests on the fitted dose curve; tested in HEK293 cells. Potencies beside an inconclusive call are fits to weak or partial responses and may not hold up.
# Assay: qHTS for Inhibitors of binding or entry into cells for Lassa Virus; further: nearly all actives have a fitted effect of over 50% in size
# Conditions: Lassa virus pseudotype entry inhibition, cell reporter; activity change, negative = inhibition: at 37.9 µM (top of the series) unless noted
# On the % scale 0 is the no-effect control and ±100 the full control effect; potency means the concentration at half of the fitted maximal effect.
SMILES,"activity change, negative = inhibition",Potency
COCCNC(=O)C(c1ccc(C)o1)N(Cc1ccc(OC)cc1)C(=O)Cn1nnc2ccccc21 (stereo not given),inactive: 0.273%,–
CCN(c1ccc(OC)cc1)S(=O)(=O)c1ccc2[nH]c3c(c2c1)CCCCC3,–,"inconclusive: 12.6 µM [inhibitor, single point]"
Cc1ccccc1C(=O)NNC(=O)CSc1nc(-c2ccccc2)cc(=O)[nH]1,inactive: 1.39%,–
CCn1c(SCC(=O)Nc2cc(C)ccc2F)nnc1-c1ccccc1O,inactive: -0.524% [at 46.1 µM],–
CN1/C(=C\C(=O)c2cccs2)C(C)(C)c2ccccc21,inactive: 0.972%,–
CCOc1ccc(C(=O)O/N=C(\N)c2ccc([N+](=O)[O-])cc2)cc1OCC,inactive: -15.6%,–
COc1ccc2nc(/N=C(\N)NC(=O)Nc3ccccc3)nc(C)c2c1,inactive: 5.9%,–
COc1cc(NC(=O)COC(=O)Cc2ccc(-c3ccccc3)cc2)cc(OC)c1,–,"inconclusive: 20 µM [inhibitor, partial curve, poor fit]"
COc1ccc(C2CC(=O)c3cc(-c4nc(-c5cccc([N+](=O)[O-])c5)cs4)c(=O)n(-c4ccccc4N)c3C2)cc1 (stereo not given),–,"inconclusive: 4.47 µM [activator, single point]"
Cc1nc2ccn(Cc3ccco3)c(=O)c2cc1C(=O)NCc1ccc(Cl)cc1,–,"inconclusive: 2.51 µM [inhibitor, partial curve, poor fit]"
Oc1ccc(Cl)cc1-c1cc(-c2cccc(Br)c2)n[nH]1,–,"inconclusive: 29.1 µM [inhibitor, single point]"
C=CCSC1=C(C#N)C(c2cc(Br)c(O)c(OC)c2)CC(=O)N1 (stereo not given),–,"inconclusive: 8.2 µM [inhibitor, partial curve, poor fit]"
CCOC(=O)c1cc(S(=O)(=O)Nc2ccccc2)[nH]n1,–,"inconclusive: 14.1 µM [activator, single point]"
O=C(CSc1n[nH]c(-c2ccc(F)cc2)n1)N1CCN(c2ccc(F)cc2)CC1,inactive: 2.69% [at 46.1 µM],–
CC(=O)Nc1ccc(NC(=O)/C=C/c2ccccc2)cc1,inactive: -7.09%,–
CCS(=O)(=O)n1nc(-c2ccc(Cl)cc2)nc1SCc1ccccc1,–,"inconclusive: 0.891 µM [inhibitor, partial curve, poor fit]"
CN1CCN(C(=O)c2ccc3c(c2)N(Cc2ccc(F)cc2)C(=O)c2ccccc2S3(=O)=O)CC1,–,"inconclusive: 6.31 µM [activator, partial curve, poor fit]"
COc1ccccc1NC(=O)CSc1nc(=O)n(CCN2CCOCC2)c2c1CCC2,inactive: -1.42%,–
Cn1c(N)c(C#N)c2c(c1=S)CSC(C)(C)C2,–,"inconclusive: 7.3 µM [inhibitor, partial curve, poor fit]"
COCCCNC(=O)c1cc(=O)n(Cc2ccc(Cl)cc2)c2ccccc12,–,"inconclusive: 11.2 µM [inhibitor, partial curve, poor fit]"
CCc1ccccc1N1CC(C(=O)O)CC1=O (stereo not given),–,"inconclusive: 35.5 µM [activator, partial curve, poor fit]"
COc1ccc(Cc2nc3c([nH]2)c(=O)n(C)c(=O)n3C)cc1OC,inactive: 10.7% [at 46.1 µM],–
COc1ccc(C(=O)Nc2ccc(Cl)cc2C(=O)N2CCCC(C)C2)cc1OC (stereo not given),inactive: 4.41%,–
O=C(/C=C/c1ccccc1[N+](=O)[O-])Nc1cccnc1,–,"inconclusive: 1.41 µM [activator, partial curve, poor fit]"

# In the list so far, these have fluorine.
SMILES,"activity change, negative = inhibition",Potency
CCn1c(SCC(=O)Nc2cc(C)ccc2F)nnc1-c1ccccc1O,inactive: -0.524% [at 46.1 µM],–
O=C(CSc1n[nH]c(-c2ccc(F)cc2)n1)N1CCN(c2ccc(F)cc2)CC1,inactive: 2.69% [at 46.1 µM],–
CN1CCN(C(=O)c2ccc3c(c2)N(Cc2ccc(F)cc2)C(=O)c2ccccc2S3(=O)=O)CC1,–,"inconclusive: 6.31 µM [activator, partial curve, poor fit]"

# (more compounds)

SMILES,"activity change, negative = inhibition",Potency
Cc1ccc(-n2c(C)cc(C(=O)CSc3nnnn3C)c2C)cc1,–,"inconclusive: 16.4 µM [inhibitor, partial curve, poor fit]"
COc1ccc(C2=NC(c3ccccc3)=Nc3ccc(C)cc3N2)cc1,inactive: 0.358% [at 46.1 µM],–
COc1cc(C(=O)Nc2ccccc2-c2nc(-c3ccccc3)no2)cc(OC)c1OC,inactive: 5.45% [at 46.1 µM],–
Cc1ccc(CN2CCCn3nc(C(=O)NCCc4ccccc4C)cc3C2=O)cc1,inactive: 8.05% [at 46.1 µM],–
O=C1CCCC2=C1C(c1ccncc1)c1c(nc(SCc3ccccc3Cl)[nH]c1=O)N2 (stereo not given),–,"inconclusive: 35.5 µM [inhibitor, single point]"
COc1cc2ncn(-c3cc(OCCc4ccccc4)c(C(N)=O)s3)c2cc1OC,–,active: 17.7 µM
COc1ccc(N(CC(=O)NCC2CCCO2)C(=O)CCC(=O)Nc2nccs2)cc1 (stereo not given),–,"inconclusive: 0.891 µM [inhibitor, single point]"
CC1(C)CC(=O)C(C=NCCc2ccccn2)=C(O)C1,–,"inconclusive: 29.1 µM [activator, single point]"
c1ccc(CNc2nc3ccccc3[nH]2)cc1,–,"inconclusive: 32.6 µM [inhibitor, partial curve, poor fit]"
CN(CCC1CCOCC1)C(=O)CC1C(=O)NCCN1C/C=C/c1ccccc1 (stereo not given),inactive: -6.11% [at 46.1 µM],–
O=C(c1cc2nc(-c3ccccc3)cc(-c3ccccc3)n2n1)N1CCN(C(=O)c2ccco2)CC1,–,"inconclusive: 25.1 µM [inhibitor, single point]"
O=c1[nH]c(C2CC2)nc2sc3c(c12)CCCC3,inactive: -12.2%,–
O=C(NCCc1ccccc1)C(=O)NCc1ccncc1,inactive: 4.67%,–
O=C(Nc1ccc(F)cc1)OC[C@@H]1CSCCS(=O)(=O)N1,–,"inconclusive: 28.1 µM [activator, single point]"
CC1CCN(c2nn3c(=O)c(C(=O)NCCCOC(C)C)cnc3s2)CC1,–,"inconclusive: 10 µM [inhibitor, partial curve, poor fit]"
CCOC(=O)c1cccc(NC(=O)Cn2cc3c(n2)CCC(C)C3)c1 (stereo not given),–,"inconclusive: 29.1 µM [inhibitor, single point]"
CC1=C(C(=O)OCc2ccccc2)C(c2ccc(C(C)(C)C)cc2)NC(=O)N1CCCCCC(=O)O (stereo not given),–,"inconclusive: 20.6 µM [inhibitor, single point]"
O=c1cc(Cl)[nH]c(=O)n1Cc1ccccc1,–,"inconclusive: 0.224 µM [inhibitor, full curve, poor fit]"
COc1ccc(C(=O)C[n+]2cccc3cc(C)ccc32)cc1,–,"inconclusive: 11.2 µM [inhibitor, partial curve, poor fit]"
Cc1ccccc1N1C(=O)C(Cc2ccc(F)cc2)S/C1=C(\C#N)C(N)=O (stereo not given),–,"inconclusive: 35.5 µM [activator, single point]"
COc1ccc(-c2nn3c(C4CCCCC4)nnc3s2)cc1OC,–,"inconclusive: 29.1 µM [inhibitor, single point]"
CC(=O)Nc1cccc(NC(=O)c2ccccc2OCc2ccccc2)c1,–,"inconclusive: 35.5 µM [inhibitor, single point]"
COC(=O)/C=C1/S/C(=N/NC(=O)c2ccccc2OC)NC1=O,inactive: 15.4% [at 46.1 µM],–
COc1ccc(OCC(=O)NC2CCSc3ccccc32)cc1 (stereo not given),–,"inconclusive: 8.91 µM [inhibitor, partial curve, poor fit]"

SMILES,"activity change, negative = inhibition",Potency
COc1cccc(C(=O)Cn2c(Br)nc3c2c(=O)n(C)c(=O)n3C)c1,inactive: -4.96%,–
Cc1ccc(O)c(-c2cc(-c3ccccc3F)[nH]n2)c1,inactive: -1.66%,–
Cc1cccc(OCCCC(=O)Nc2ccc(S(=O)(=O)Nc3nccs3)cc2)c1C,inactive: -16%,–
N#Cc1ccc(-c2ccc(F)cc2)nc1Oc1ccccc1,–,"inconclusive: 20.6 µM [inhibitor, partial curve, poor fit]"
Clc1ccc(OCC#CCN2CCCC2)cc1,inactive: 20.2% [at 46.1 µM],–
O=C(CCN1C(=O)/C(=C/c2ccc(F)cc2)SC1=S)NCCc1cnc[nH]1,–,"inconclusive: 7.08 µM [activator, partial curve, poor fit]"
Cc1nc([N+](=O)[O-])c(NCCO)n1Cc1ccccc1,inactive: -22.6%,–
COC(=O)c1ccc(NC(=S)NC2CCCCC2)cc1,inactive: -0.472%,–
CS(=O)(=O)N(CC(=O)N1CCCC1)c1cc(Cl)c(Cl)cc1Cl,–,"inconclusive: 18.3 µM [activator, single point]"
Cc1ccc(S(=O)(=O)N(C)C)cc1NC(=O)COC(=O)CCNS(=O)(=O)c1ccccc1,inactive: 4.3%,–
COc1ccc(C2=NN(C(=O)CSc3nc(=O)n4cccc(C)c4n3)C(c3ccc(C)cc3)C2)cc1 (stereo not given),–,"inconclusive: 6.31 µM [inhibitor, single point]"
O=C(Nc1nc(-c2ccc(Cl)cc2)cs1)C1=COCCO1,inactive: -25.6%,–
COc1ccccc1NC(=O)CN1CCN(CC(=O)Nc2ccc(Cl)c(C(F)(F)F)c2)CC1,–,"inconclusive: 15.8 µM [inhibitor, single point]"
CC(C)(C)C1CCc2c(sc(NC(=O)c3cc4ccccc4c(=O)o3)c2C(N)=O)C1 (stereo not given),–,"inconclusive: 2.82 µM [activator, single point]"
COc1cc(Br)cc(/C=N/c2ncn[nH]2)c1O,–,"inconclusive: 29.1 µM [inhibitor, single point]"
COc1ccc(NC(=O)c2ccc(-n3cccn3)c([N+](=O)[O-])c2)cc1,inactive: -2.14%,–
COc1ccc(C2(OC)Oc3cc(OC)ccc3C(=O)C2(O)OC)cc1 (stereo not given),–,"inconclusive: 8.91 µM [inhibitor, partial curve]"
Cc1ccc(-n2nc(C(=O)Nc3ccc(F)cc3F)c3c4ccccc4n(C)c3c2=O)cc1,–,"inconclusive: 11.2 µM [activator, partial curve, poor fit]"
CCC(NC(=O)c1ccc([N+](=O)[O-])cc1[N+](=O)[O-])c1ccccc1 (stereo not given),–,"inconclusive: 0.708 µM [activator, single point]"
COc1cccc(C(=O)NNS(=O)(=O)c2ccc(C)cc2)c1,inactive: -0.482% [at 46.1 µM],–
CC(C)c1ccc2[nH]c(O)c(N=NC(=O)c3cccc(S(=O)(=O)Nc4ccc(Cl)cc4)c3)c2c1,–,"inconclusive: 5.62 µM [inhibitor, single point]"
O=S1(=O)Cc2cc3ccccc3cc2C1,–,"inconclusive: 5.62 µM [activator, partial curve, poor fit]"
